Experimental data published in article PMC9867315, “Enhanced Cytotoxic Activity of PEGylated Curcumin Derivatives: Synthesis, Structure–Activity Evaluation, and Biological Activity” (International Journal of Molecular Sciences, 2023).

Test system: 5637 cells
Experiment: Cellular uptake by flow cytometry (fluorescence)
Assay type: cell-based, human
Conditions: 5637, 10 µM; for positive cells (cellular uptake): medium with FBS

| Molecule | positive cells (cellular uptake) (0.5 h) | positive cells (cellular uptake) (2 h) | positive cells (cellular uptake) (4 h) | fluorescence (cellular uptake) in the medium without FBS (8 h, 0% FBS) | positive cells (cellular uptake) (8 h) [%] |
| --- | --- | --- | --- | --- | --- |
| (1E,4Z,6E)-5-hydroxy-1,7-bis (3-methoxy-4-hydroxyphenyl)-hepta-1,4,6-trien-3-one [Curcumin (11), reference compound] | approximately 30% | 80–90% | 80–90% |  |  |
| COCCOCCOCCOc1ccc(/C=C/C(=O)/C=C(O)/C=C/c2ccc(OCCOCCOCCOC)c(OC)c2)cc1OC [Compound 5, (1E,4Z,6E)-5-hydroxy-1,7-bis(3-methoxy-4-{2-[2-(2-methoxyethoxy)ethoxy]ethoxy}phenyl)-hepta-1,4,6-trien-3-one] |  |  |  | diminished | 36 |
